Experimental data published in paper PMC11949052.
Results are given in words; binding and its absence hold for the method and conditions named. Some results given as binding are weak or reduced against the parent protein; the word gives no strength.

Sequences of proteins named here, by UniProt entry; tags and fusion partners are left off. A change or cut given only in a name is not applied to a line headed by its entry.
UniProt P03952: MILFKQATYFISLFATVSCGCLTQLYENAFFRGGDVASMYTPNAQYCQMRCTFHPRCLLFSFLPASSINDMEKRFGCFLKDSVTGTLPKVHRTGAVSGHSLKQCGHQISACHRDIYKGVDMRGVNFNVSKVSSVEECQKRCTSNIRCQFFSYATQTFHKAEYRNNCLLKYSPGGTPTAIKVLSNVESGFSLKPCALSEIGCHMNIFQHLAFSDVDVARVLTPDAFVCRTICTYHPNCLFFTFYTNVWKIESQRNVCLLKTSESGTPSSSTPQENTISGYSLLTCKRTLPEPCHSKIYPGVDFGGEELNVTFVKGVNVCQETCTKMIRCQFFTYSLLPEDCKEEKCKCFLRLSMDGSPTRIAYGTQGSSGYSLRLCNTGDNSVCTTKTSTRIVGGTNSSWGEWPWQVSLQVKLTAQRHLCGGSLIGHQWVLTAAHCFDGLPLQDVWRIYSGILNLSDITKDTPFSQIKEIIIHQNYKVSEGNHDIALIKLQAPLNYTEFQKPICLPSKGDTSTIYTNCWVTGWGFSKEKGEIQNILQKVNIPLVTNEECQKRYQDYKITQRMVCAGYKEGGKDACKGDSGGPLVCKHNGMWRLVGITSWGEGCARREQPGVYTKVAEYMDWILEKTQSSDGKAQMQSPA

Tests used:
activated C1s (C1s̄) = biological target: T1, activated C1s (C1s̄) (UniProt P09871); test: ELISA; Quidel kit: C1-INH (transfectant supernatant) incubated with biotinylated C1s̄, the complex captured on streptavidin-coated wells, detected with goat anti-human C1-INH Ab; C1-INH at 125 ng/mL, 250 ng/mL, 500 ng/mL and 1 μg/mL; relative absorbance (450 nm) against WT; only the target purified
T1 sequence (chain, biotinylated | biotinylated) 1: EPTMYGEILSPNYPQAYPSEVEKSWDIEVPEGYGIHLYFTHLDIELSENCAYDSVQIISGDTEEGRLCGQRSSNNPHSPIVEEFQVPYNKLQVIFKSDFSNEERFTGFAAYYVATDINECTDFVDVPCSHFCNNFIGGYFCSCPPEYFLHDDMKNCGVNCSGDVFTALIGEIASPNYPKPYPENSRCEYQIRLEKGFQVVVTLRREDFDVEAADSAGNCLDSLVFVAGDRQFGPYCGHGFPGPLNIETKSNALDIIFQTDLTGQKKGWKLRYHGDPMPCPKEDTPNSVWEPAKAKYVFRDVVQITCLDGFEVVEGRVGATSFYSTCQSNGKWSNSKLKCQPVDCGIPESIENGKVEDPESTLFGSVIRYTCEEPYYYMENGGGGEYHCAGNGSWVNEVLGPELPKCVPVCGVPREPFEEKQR
T1 sequence (chain, biotinylated | biotinylated) 2: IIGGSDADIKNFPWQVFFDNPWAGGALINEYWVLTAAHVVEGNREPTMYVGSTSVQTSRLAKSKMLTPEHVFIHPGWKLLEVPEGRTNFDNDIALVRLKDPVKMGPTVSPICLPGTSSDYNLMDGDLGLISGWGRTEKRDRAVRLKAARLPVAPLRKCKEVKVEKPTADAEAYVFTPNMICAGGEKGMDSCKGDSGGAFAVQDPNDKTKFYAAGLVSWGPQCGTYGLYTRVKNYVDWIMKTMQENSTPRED

kallikrein (PKa) (human) = kallikrein (PKa) (human) (UniProt P03952); test: ELISA; biotinylated FXIIa or PKa (25 μL of 2 μg/mL) with an equivalent molar amount of C1-INH (transfectant supernatant) in 2% BSA in PBS-T on a streptavidin-coated plate, 1 hour at 37°C; bound complex detected with anti-C1-INH mAb; serially diluted samples; relative absorbance against WT; only the target purified

B1: C1-INH S354G (protein, UniProt P05155 23-500)
chain: NPNATSSSSQDPESLQDRGEGKVATTVISKMLFVEPILEVSSLPTTNSTTNSATKITANTTDEPTTQPTTEPTTQPTIQPTQPTTQLPTDSPTQPTTGSFCPGPVTLCSDLESHSTEAVLGDALVDFSLKLYHAFSAMKKVETNMAFSPFSIASLLTQVLLGAGENTKTNLESILSYPKDFTCVHQALKGFTTKGVTSVSQIFHSPDLAIRDTFVNASRTLYSSSPRVLSNNSDANLELINTWVAKNTNNKISRLLDSLPSDTRLVLLNAIYLSAKWKTTFDPKKTRMEPFHFKNSVIKVPMMNSKKYPVAHFIDQTLKAKVGQLQLSHNLGLVILVPQNLKHRLEDMEQALSPSVFKAIMEKLEMSKFQPTLLTLPRIKVTTSQDMLSIMEKLEFFDFSYDLNLCGLTEDPDLQVSAMQHQTVLELTETGVEAAAASAISVARTLLVFEVQQPFLFVLWDQQHKFPVFMGRVYDPRA
Activated C1s (C1s̄)
  binding: binds
Kallikrein (PKa) (human)
  binding: binds

B2: C1-INH N253A (protein, UniProt P05155 23-500)
chain: NPNATSSSSQDPESLQDRGEGKVATTVISKMLFVEPILEVSSLPTTNSTTNSATKITANTTDEPTTQPTTEPTTQPTIQPTQPTTQLPTDSPTQPTTGSFCPGPVTLCSDLESHSTEAVLGDALVDFSLKLYHAFSAMKKVETNMAFSPFSIASLLTQVLLGAGENTKTNLESILSYPKDFTCVHQALKGFTTKGVTSVSQIFHSPDLAIRDTFVNASRTLYSSSPRVLSANSDANLELINTWVAKNTNNKISRLLDSLPSDTRLVLLNAIYLSAKWKTTFDPKKTRMEPFHFKNSVIKVPMMNSKKYPVAHFIDQTLKAKVGQLQLSHNLSLVILVPQNLKHRLEDMEQALSPSVFKAIMEKLEMSKFQPTLLTLPRIKVTTSQDMLSIMEKLEFFDFSYDLNLCGLTEDPDLQVSAMQHQTVLELTETGVEAAAASAISVARTLLVFEVQQPFLFVLWDQQHKFPVFMGRVYDPRA
Activated C1s (C1s̄)
  binding: binds
Kallikrein (PKa) (human)
  binding: binds

B3: C1-INH N253del (protein, UniProt P05155 23-500)
chain: NPNATSSSSQDPESLQDRGEGKVATTVISKMLFVEPILEVSSLPTTNSTTNSATKITANTTDEPTTQPTTEPTTQPTIQPTQPTTQLPTDSPTQPTTGSFCPGPVTLCSDLESHSTEAVLGDALVDFSLKLYHAFSAMKKVETNMAFSPFSIASLLTQVLLGAGENTKTNLESILSYPKDFTCVHQALKGFTTKGVTSVSQIFHSPDLAIRDTFVNASRTLYSSSPRVLSNSDANLELINTWVAKNTNNKISRLLDSLPSDTRLVLLNAIYLSAKWKTTFDPKKTRMEPFHFKNSVIKVPMMNSKKYPVAHFIDQTLKAKVGQLQLSHNLSLVILVPQNLKHRLEDMEQALSPSVFKAIMEKLEMSKFQPTLLTLPRIKVTTSQDMLSIMEKLEFFDFSYDLNLCGLTEDPDLQVSAMQHQTVLELTETGVEAAAASAISVARTLLVFEVQQPFLFVLWDQQHKFPVFMGRVYDPRA
Activated C1s (C1s̄)
  binding: binds
Kallikrein (PKa) (human)
  binding: binds

B4: C1-INH N254A (protein, UniProt P05155 23-500)
chain: NPNATSSSSQDPESLQDRGEGKVATTVISKMLFVEPILEVSSLPTTNSTTNSATKITANTTDEPTTQPTTEPTTQPTIQPTQPTTQLPTDSPTQPTTGSFCPGPVTLCSDLESHSTEAVLGDALVDFSLKLYHAFSAMKKVETNMAFSPFSIASLLTQVLLGAGENTKTNLESILSYPKDFTCVHQALKGFTTKGVTSVSQIFHSPDLAIRDTFVNASRTLYSSSPRVLSNASDANLELINTWVAKNTNNKISRLLDSLPSDTRLVLLNAIYLSAKWKTTFDPKKTRMEPFHFKNSVIKVPMMNSKKYPVAHFIDQTLKAKVGQLQLSHNLSLVILVPQNLKHRLEDMEQALSPSVFKAIMEKLEMSKFQPTLLTLPRIKVTTSQDMLSIMEKLEFFDFSYDLNLCGLTEDPDLQVSAMQHQTVLELTETGVEAAAASAISVARTLLVFEVQQPFLFVLWDQQHKFPVFMGRVYDPRA
Activated C1s (C1s̄)
  binding: binds
Kallikrein (PKa) (human)
  binding: binds

B5: C1-INH N254del (protein, UniProt P05155 23-500)
chain: NPNATSSSSQDPESLQDRGEGKVATTVISKMLFVEPILEVSSLPTTNSTTNSATKITANTTDEPTTQPTTEPTTQPTIQPTQPTTQLPTDSPTQPTTGSFCPGPVTLCSDLESHSTEAVLGDALVDFSLKLYHAFSAMKKVETNMAFSPFSIASLLTQVLLGAGENTKTNLESILSYPKDFTCVHQALKGFTTKGVTSVSQIFHSPDLAIRDTFVNASRTLYSSSPRVLSNSDANLELINTWVAKNTNNKISRLLDSLPSDTRLVLLNAIYLSAKWKTTFDPKKTRMEPFHFKNSVIKVPMMNSKKYPVAHFIDQTLKAKVGQLQLSHNLSLVILVPQNLKHRLEDMEQALSPSVFKAIMEKLEMSKFQPTLLTLPRIKVTTSQDMLSIMEKLEFFDFSYDLNLCGLTEDPDLQVSAMQHQTVLELTETGVEAAAASAISVARTLLVFEVQQPFLFVLWDQQHKFPVFMGRVYDPRA
Activated C1s (C1s̄)
  binding: binds
Kallikrein (PKa) (human)
  binding: binds

B6: C1-INH S255del (protein, UniProt P05155 23-500)
chain: NPNATSSSSQDPESLQDRGEGKVATTVISKMLFVEPILEVSSLPTTNSTTNSATKITANTTDEPTTQPTTEPTTQPTIQPTQPTTQLPTDSPTQPTTGSFCPGPVTLCSDLESHSTEAVLGDALVDFSLKLYHAFSAMKKVETNMAFSPFSIASLLTQVLLGAGENTKTNLESILSYPKDFTCVHQALKGFTTKGVTSVSQIFHSPDLAIRDTFVNASRTLYSSSPRVLSNNDANLELINTWVAKNTNNKISRLLDSLPSDTRLVLLNAIYLSAKWKTTFDPKKTRMEPFHFKNSVIKVPMMNSKKYPVAHFIDQTLKAKVGQLQLSHNLSLVILVPQNLKHRLEDMEQALSPSVFKAIMEKLEMSKFQPTLLTLPRIKVTTSQDMLSIMEKLEFFDFSYDLNLCGLTEDPDLQVSAMQHQTVLELTETGVEAAAASAISVARTLLVFEVQQPFLFVLWDQQHKFPVFMGRVYDPRA
Activated C1s (C1s̄)
  binding: binds
Kallikrein (PKa) (human)
  binding: binds

B7: C1-INH S255G (protein, UniProt P05155 23-500)
chain: NPNATSSSSQDPESLQDRGEGKVATTVISKMLFVEPILEVSSLPTTNSTTNSATKITANTTDEPTTQPTTEPTTQPTIQPTQPTTQLPTDSPTQPTTGSFCPGPVTLCSDLESHSTEAVLGDALVDFSLKLYHAFSAMKKVETNMAFSPFSIASLLTQVLLGAGENTKTNLESILSYPKDFTCVHQALKGFTTKGVTSVSQIFHSPDLAIRDTFVNASRTLYSSSPRVLSNNGDANLELINTWVAKNTNNKISRLLDSLPSDTRLVLLNAIYLSAKWKTTFDPKKTRMEPFHFKNSVIKVPMMNSKKYPVAHFIDQTLKAKVGQLQLSHNLSLVILVPQNLKHRLEDMEQALSPSVFKAIMEKLEMSKFQPTLLTLPRIKVTTSQDMLSIMEKLEFFDFSYDLNLCGLTEDPDLQVSAMQHQTVLELTETGVEAAAASAISVARTLLVFEVQQPFLFVLWDQQHKFPVFMGRVYDPRA
Activated C1s (C1s̄)
  binding: binds
Kallikrein (PKa) (human)
  binding: binds

B8: C1-INH N238A (protein, UniProt P05155 23-500)
chain: NPNATSSSSQDPESLQDRGEGKVATTVISKMLFVEPILEVSSLPTTNSTTNSATKITANTTDEPTTQPTTEPTTQPTIQPTQPTTQLPTDSPTQPTTGSFCPGPVTLCSDLESHSTEAVLGDALVDFSLKLYHAFSAMKKVETNMAFSPFSIASLLTQVLLGAGENTKTNLESILSYPKDFTCVHQALKGFTTKGVTSVSQIFHSPDLAIRDTFVAASRTLYSSSPRVLSNNSDANLELINTWVAKNTNNKISRLLDSLPSDTRLVLLNAIYLSAKWKTTFDPKKTRMEPFHFKNSVIKVPMMNSKKYPVAHFIDQTLKAKVGQLQLSHNLSLVILVPQNLKHRLEDMEQALSPSVFKAIMEKLEMSKFQPTLLTLPRIKVTTSQDMLSIMEKLEFFDFSYDLNLCGLTEDPDLQVSAMQHQTVLELTETGVEAAAASAISVARTLLVFEVQQPFLFVLWDQQHKFPVFMGRVYDPRA
Activated C1s (C1s̄)
  binding: binds
Kallikrein (PKa) (human)
  binding: binds
